Results taken from patent publication US10214779B2, “Method for identification of anti-HIV human miRNA mimics and miRNA inhibitors and anti-HIV pharmaceutical compounds” (CSIR, priority 2013, dated 2019).
Counter-ions that a name gives are not always drawn. For at least one compound, name, drawing or mass did not settle the structure.

Tested on: HIV (Subtype B pseudoviral strain, PSGIII) in GHOST(3) cells
Assay: Targeted drug screen, Phenocopy Screen (drug before HIV infection) in GHOST(3) cells
Details: drug 24 h before infection, MOI 0.5, 48 hour, screened at 100 nM, 1 uM and 10 uM

Compound | Effect (Phenocopy Screen)
NCC(=O)CCC(=O)O [Aminolevulinic acid hydrochloride] | Toxic in response
C[C@]12CC[C@H](O)CC1=CC[C@@H]1[C@@H]2CC[C@]2(C)C(c3cccnc3)=CC[C@@H]12 [Abiraterone] | Toxic in response
